Values from PubChem BioAssay AID504774 (Drosophila RNAi Screening Center, 2011).
In all, the deposit lists about 23,000 reagents; below is an unselected part of those with a known target gene and a result. 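Values are quantile-normalised luminescence on an arbitrary scale; higher means more cells surviving MMS.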 Names joined by + are all predicted targets of the reagent. Not all columns of the deposit are shown.

Aim: 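Knock-downs that shift viability of MMS-exposed cells relative to untreated ones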 (primary screen)
System: Drosophila Kc167 cells
Knock-down reagent: long dsRNA against Drosophila genes, about 0.25 µg dsRNA per well
Timing: about 6 days: 3 days knock-down, then 3 days with or without MMS
Conditions: methyl methanesulphonate 0.004% (w/v) for 3 days after knock-down
Detection: 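Viability in wells given MMS, read as ATP luminescence, normalised by quantiles plate by plate and averaged across replicates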
Direction: mean viability with MMS and viability with MMS: higher = more surviving cells after MMS

Gene | DRSC id | mean viability with MMS | viability with MMS, replicate 1
Sugb | DRSC10815 | 3.60e6 | 4.12e6
CG6415 | DRSC02954 | 3.49e6 | 4.01e6
CG15251 (retired record) | DRSC17980 | 3.57e6 | 4.06e6
CG10918 | DRSC20472 | 3.48e6 | 3.88e6
Sik3 | DRSC06505 | 3.61e6 | 4.16e6
Sik3 | DRSC06771 | 3.44e6 | 3.87e6
Alg14 | DRSC19983 | 3.62e6 | 4.15e6
CG8192 | DRSC07101 | 3.19e6 | 3.67e6
CG13921 | DRSC08390 | 3.59e6 | 4.00e6
COX7C | DRSC06831 | 3.56e6 | 4.06e6
CG13086 | DRSC02190 | 3.42e6 | 3.89e6
CG14491 | DRSC06462 | 3.61e6 | 4.11e6
Tbca | DRSC15395 | 3.57e6 | 4.08e6
E(spl)m4-BFM | DRSC16992 | 3.62e6 | 4.09e6
comr | DRSC04138 | 3.57e6 | 4.07e6
Gr58c | DRSC04136 | 3.59e6 | 4.13e6
CG10317 | DRSC14229 | 3.51e6 | 4.02e6
APC7 | DRSC17937 | 3.50e6 | 4.06e6
hrg | DRSC07502 | 3.22e6 | 3.64e6
CG6614 | DRSC02974 | 3.75e6 | 4.27e6
CG18249 | DRSC15318 | 3.61e6 | 4.15e6
CG31415 | DRSC22409 | 3.58e6 | 4.04e6
tun | DRSC05592 | 3.47e6 | 3.97e6
tun | DRSC07127 | 3.67e6 | 4.19e6
CG34253 | DRSC09531 | 3.49e6 | 3.97e6
CG11279 | DRSC09837 | 3.51e6 | 3.86e6
FucTD | DRSC08634 | 3.56e6 | 4.09e6
gpp | DRSC12515 | 3.27e6 | 3.76e6
gpp | DRSC12516 | 3.29e6 | 3.74e6
Pldn | DRSC10137 | 3.60e6 | 4.18e6
IntS10 | DRSC08173 | 3.50e6 | 3.98e6
CG14246 | DRSC14741 | 3.67e6 | 4.06e6
lmd | DRSC15618 | 3.53e6 | 4.02e6
Apc2 | DRSC14115 | 3.72e6 | 4.16e6
Oatp58Da | DRSC04365 | 3.38e6 | 3.79e6
CG15739 | DRSC19705 | 3.66e6 | 4.21e6
DCP1 | DRSC04091 | 3.47e6 | 3.93e6
fzy | DRSC03534 | 3.00e6 | 3.62e6
CG7289 | DRSC00697 | 3.65e6 | 4.05e6
Prx6c + CG12896 + Prx6b | DRSC06148 | 3.63e6 | 4.04e6
Est-P | DRSC11163 | 3.53e6 | 3.94e6
CG6830 | DRSC16124 | 3.48e6 | 3.99e6
CG15247 | DRSC17976 | 3.62e6 | 4.12e6
RAF2 | DRSC10443 | 3.56e6 | 4.13e6
RAF2 | DRSC10454 | 3.68e6 | 4.14e6
CG12702 | DRSC19487 | 3.52e6 | 4.05e6

Part of the list above, reformatted.
| Gene | DRSC id | mean viability with MMS | viability with MMS, replicate 1 |
| --- | --- | --- | --- |
| CG15247 | DRSC17976 | 3.62e6 | 4.12e6 |
| RAF2 | DRSC10443 | 3.56e6 | 4.13e6 |
| RAF2 | DRSC10454 | 3.68e6 | 4.14e6 |
